The record followed here is PMC4490784, “Compensatory induction of MYC expression by sustained CDK9 inhibition via a BRD4-dependent mechanism” (eLife, 2015).

Chains of the proteins cited; added tags and fusions are not shown.
UniProt P01106: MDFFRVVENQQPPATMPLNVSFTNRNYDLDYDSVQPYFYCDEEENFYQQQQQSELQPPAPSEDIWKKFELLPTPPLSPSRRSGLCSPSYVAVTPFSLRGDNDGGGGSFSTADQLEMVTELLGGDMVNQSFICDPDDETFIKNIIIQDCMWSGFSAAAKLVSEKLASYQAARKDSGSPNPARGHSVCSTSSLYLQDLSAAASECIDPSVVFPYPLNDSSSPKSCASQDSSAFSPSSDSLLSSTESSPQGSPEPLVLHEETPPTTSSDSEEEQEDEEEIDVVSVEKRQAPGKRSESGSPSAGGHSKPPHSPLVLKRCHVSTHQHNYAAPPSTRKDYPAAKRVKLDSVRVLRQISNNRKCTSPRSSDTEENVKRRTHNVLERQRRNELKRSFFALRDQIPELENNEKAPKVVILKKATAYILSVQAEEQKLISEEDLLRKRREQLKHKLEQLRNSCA
UniProt P50750: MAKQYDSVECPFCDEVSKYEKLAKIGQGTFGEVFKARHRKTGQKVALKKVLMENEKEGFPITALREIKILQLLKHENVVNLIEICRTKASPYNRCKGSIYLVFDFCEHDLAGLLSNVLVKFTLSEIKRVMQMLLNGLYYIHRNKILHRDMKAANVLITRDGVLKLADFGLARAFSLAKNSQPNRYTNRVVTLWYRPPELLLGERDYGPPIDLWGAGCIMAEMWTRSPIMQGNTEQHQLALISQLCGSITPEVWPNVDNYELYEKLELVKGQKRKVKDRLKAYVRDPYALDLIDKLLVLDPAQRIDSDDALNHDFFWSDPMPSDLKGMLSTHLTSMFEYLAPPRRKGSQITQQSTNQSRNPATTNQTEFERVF
UniProt O94992: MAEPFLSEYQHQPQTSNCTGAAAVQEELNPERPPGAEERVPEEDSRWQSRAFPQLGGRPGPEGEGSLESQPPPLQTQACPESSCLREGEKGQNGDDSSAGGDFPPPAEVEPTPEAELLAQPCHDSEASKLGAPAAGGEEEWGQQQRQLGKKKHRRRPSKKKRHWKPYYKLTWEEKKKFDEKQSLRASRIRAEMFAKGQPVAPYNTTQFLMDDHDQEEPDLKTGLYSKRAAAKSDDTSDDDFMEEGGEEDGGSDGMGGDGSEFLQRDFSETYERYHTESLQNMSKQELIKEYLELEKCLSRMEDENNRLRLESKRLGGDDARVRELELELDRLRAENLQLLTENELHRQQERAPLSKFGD

These are yes or no findings as the source states them, for the method shown. Binding seen in cells or lysates may run through a third protein. Some binding calls cover weakened binding; strength is not graded here.

In one test the target is Flag-tagged MYC (MYC-F) (UniProt P01106). Description: co-IP; anti-Flag immunoprecipitation of MYC-F from nuclear extracts of HeLa-based cells, untreated or treated with i-CDK9 or DMSO; immunoblotting.
In test [1] the target is Flag-tagged CDK9 (CDK9-F) (UniProt P50750). Description: co-IP; anti-Flag immunoprecipitation of CDK9-F from nuclear extracts of F1C2 cells treated with a range of i-CDK9 concentrations for 8 hr; Western blotting.

In the case of “CDK9 (from UniProt P50750 1-372) (enzyme)”, the binding entry in the test with Flag-tagged MYC (MYC-F) is recorded as “binds”.

For the substance HEXIM1 (from UniProt O94992 1-359), the binding entry in test [1] is on record as “binds”.
